Source: patent US20250289886A1
No constants are given. Whether binding was seen depends on the method and setting. Some binding calls cover weakened binding; strength is not graded here.

T1: CD300c antigen (UniProt Q08708)
T1 sequence (looked up): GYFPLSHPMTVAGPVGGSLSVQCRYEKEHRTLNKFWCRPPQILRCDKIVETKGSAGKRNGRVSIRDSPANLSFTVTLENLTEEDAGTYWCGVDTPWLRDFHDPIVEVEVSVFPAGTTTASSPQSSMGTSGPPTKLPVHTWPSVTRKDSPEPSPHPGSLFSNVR

T2: CD300c overexpressed on 293T cells (UniProt Q08708)
T2 sequence (looked up): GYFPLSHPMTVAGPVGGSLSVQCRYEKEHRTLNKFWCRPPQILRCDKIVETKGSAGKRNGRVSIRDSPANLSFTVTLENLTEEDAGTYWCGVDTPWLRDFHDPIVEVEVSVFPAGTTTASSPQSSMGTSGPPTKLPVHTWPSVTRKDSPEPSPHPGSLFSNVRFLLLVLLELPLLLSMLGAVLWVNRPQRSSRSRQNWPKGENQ

B1: anti-CD300c monoclonal antibody CB201 (antibody, V domains shown)
VH: EVQLLESGGGLVQPGGSLRLSCAASGFTFSRYAMSWVRQAPGKGLEWVSAISGSGGSTYYADSVKGRFTISRDNSKNTLYLQMNSLRAEDTAVYYCARSSQGIFDIWGQGTLVTVSS
VL: QSVLTQPPSASGTPGQRVTISCSGNNIGTRRVHWYQQLPDTAPKLLIYSKNNRPSGVPDRFSGSKSGTSASLAISGLRSEDEADYYCAAWDDSLSGPVFGGGTKLTVL
B2: anti-CD300c monoclonal antibody CL10 (antibody, V domains shown)
VH: EVQLLESGGGLVQPGGSLRLSCAASGFTFSSYGMHWVRQAPGKGLEWVSAISGSGGSTYYADSVKGRFTISRDNSKNTLYLQMNSLRAEDTAVYYCASGYGLMDVWGQGTLVTVSS
VL: QSVLTQPPSASGTPGQRVTISCTRSSGIIASNYVQWYQQLPGTAPKLLIYRNNQRPSGVPDRFSGSKSGTSASLAISGLRSEDEADYYCSSYAGNNNLVFGGGTKLTVL
B3: anti-CD300c monoclonal antibody SL18 (antibody, V domains shown)
VH: RVQLLESGGGLVQPGGSLRLSCAASGFTFSDYHMHWVRQAPGKGLEWVSTISSSGGYTYYAESVKSRFTISRDNSKNTLYLQMNSLRAEDTAVYYCARSIRLPLDYWGQGTLVTVSS
VL: QSVLTQPPSASGTPGQRVTISCSGNNIGSKGVHWYQQLPGTAPKLLIYEDSKRPSGVRDRFSGSKSGTSASLAISGLRSEDEADYYCQSYDSTKGVVFGGGTKLTVL

Legend:
CD300c antigen = target: T1, CD300c antigen; assay: binding ELISA, CD300c antigen coated on plate
[1] = target: T2, CD300c overexpressed on 293T cells; assay: flow cytometry (FACS binding) on 293T cells overexpressing CD300c

Row | Binder | binding (CD300c antigen) | binding [1]
1 | B1 | binds | binds
2 | B2 | binds | –
3 | B3 | binds | –
